According to PubChem BioAssay AID2685 (National Center for Advancing Translational Sciences (NCATS), 2010):
Some of the results follow. The main result of the screen is listed elsewhere. These columns were measured beside it and carry no call. Compounds called inactive in the main read-out are mostly missing here. Potencies come from curve fits of mixed quality, noted in brackets.

Assay: qHTS Assay for Lipid Storage Modulators in Drosophila S3 Cells;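 as to cell number change: cells counted by Cell Tracker Red CMTPX staining in the red channel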
Settings: BODIPY lipid droplet fluorescence, 18-24 h; for cell number change: measured here: cell count max response, cells fed with added oleic acid
How it was run: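 Drosophila S3 cells got compounds at several concentrations plus oleic acid (400 uM solution). Laser-scanning cytometry with 488 nm excitation read lipid droplets at 500-530 nm and cells at 575-640 nm. Percent activity was relative to 20 uM Triacsin C.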

[1] = measured here: lipid fluorescence (Fed channel) AC50, cells fed with added oleic acid
[2] = measured here: cell number channel AC50, cells fed with added oleic acid

Cc1ccc2c(c1)N(CCCC(=O)NCc1ccc3c(c1)OCO3)C(=O)CO2
cell number change: 10.1% | AC50 [1]: 0.164 µM [rising, single point]

CCCCCCCCCCC[N+](C)(C)CC/C=C1/c2ccccc2Sc2ccc(Cl)cc21
cell number change: -65.9% | AC50 [2]: 23.1 µM [falling, single point] | AC50 [1]: 23.1 µM [falling, partial curve]

Cc1ccc(S(=O)(=O)N(Cc2ccccc2)C(C)C)cc1
cell number change: 0.246% | AC50 [1]: 16.4 µM [falling, single point]

Cn1cccc1/C=N/NC(=O)CSc1nc2ccccc2n1C
cell number change: -10.3% | AC50 [1]: 0.13 µM [rising, partial curve, poor fit]

NC(=O)c1ccc(C(F)(F)F)n(Cc2c(Cl)cccc2Cl)c1=O
cell number change: -65.4% | AC50 [2]: 29.1 µM [falling, single point]

O=C(NCCCN1CCOCC1)C(=O)N/N=C/c1ccccc1O
cell number change: -31.5% | AC50 [2]: 29.1 µM [falling, single point]

c1ccc2c(c1)nc(N1CCOCC1)c1nncn12
cell number change: 20.4% | AC50 [1]: 0.731 µM [rising, full curve, poor fit]

COc1ccc(C2c3ccc(O)cc3Oc3ncn4nc(-c5ccco5)nc4c32)cc1OC (stereo not given)
cell number change: -41.5% | AC50 [2]: 32.6 µM [falling, single point] | AC50 [1]: 29.1 µM [falling, single point]

CCC(=O)Nc1ccc(N2CCN(C(=O)c3cccs3)CC2)cc1
cell number change: 137% | AC50 [2]: 16.4 µM [rising, partial curve]

CCOC(=O)N1CCN(c2c(NCCCN3CCCCCC3)c(=O)c2=O)CC1
cell number change: -0.285%

O=C1C(=O)N(CCN2CCOCC2)C(c2ccc([N+](=O)[O-])cc2)/C1=C(/O)c1ccc2c(c1)OCO2 (stereo not given)
cell number change: 61.1% | AC50 [2]: 13 µM [rising, partial curve]

O=C(CNC(=S)NC(=O)c1ccc(Br)o1)c1ccccc1
cell number change: -3.88% | AC50 [1]: 0.92 µM [rising, full curve, poor fit]

Cc1ccsc1/C=C1/NC(=O)N(Cc2ccc(F)cc2)C1=O
cell number change: -35.3% | AC50 [2]: 16.4 µM [falling, single point]

OCc1nc2ccccc2n1CCCOc1ccc(Br)cc1
cell number change: -30.3% | AC50 [2]: 18.4 µM [falling, single point]

CCOc1ccc(CCNC(=O)c2cc([N+](=O)[O-])ccc2N2CCOCC2)cc1OCC
cell number change: -24.1% | AC50 [1]: 20.6 µM [falling, partial curve, poor fit]

CCOC(=O)C1(Cc2ccccc2Cl)CCN(C(=O)CCn2ccnc2C)CC1
cell number change: 5.98% | AC50 [1]: 6.51 µM [falling, single point]

CN(C)S(=O)(=O)c1ccc(N/C=C(\[N+](=O)[O-])S(=O)(=O)c2ccccc2)cc1
cell number change: -24.1% | AC50 [1]: 16.4 µM [falling, partial curve]

CC1CCN(S(=O)(=O)N2CCC(C(=O)NCCC3=CCCCC3)CC2)CC1
cell number change: 17.3% | AC50 [1]: 0.92 µM [rising, full curve]

CCN(CC(=O)Nc1ccc([N+](=O)[O-])cc1OC)CC(=O)NC(C)(C)C
cell number change: -5.1%

O=c1[nH]c(/C(Cl)=C/c2c(F)cccc2Cl)nc2cc(Cl)ccc12
cell number change: -6.68% | AC50 [2]: 6.51 µM [falling, partial curve] | AC50 [1]: 5.8 µM [rising, partial curve, poor fit]

CN(c1ccc(OC(=O)CN2C(=O)NC3(CCCC3)C2=O)cc1)S(=O)(=O)c1ccccc1
cell number change: -3.05% | AC50 [1]: 25.9 µM [falling, single point]

CC(=O)c1ccc(OCC(=O)OCC(=O)Nc2sccc2C(N)=O)cc1
AC50 [1]: 3.26 µM [falling, partial curve]

CCOc1ccc(NC(=O)C2CCCCN2S(=O)(=O)c2ccccc2)cc1 (stereo not given)
AC50 [2]: 0.731 µM [rising, full curve, poor fit] | AC50 [1]: 23.1 µM [rising, partial curve]

CCCc1cc(C(=O)OC)c(NC(=O)CCCC(=O)O)s1
cell number change: 15.4%

COc1ccccc1-c1nc(SC)n[nH]1
cell number change: 21.5%

Nc1nc(=S)[nH]c2c1C1(CCCCC1)Cc1ccccc1-2
cell number change: 2.54% | AC50 [2]: 6.51 µM [rising, single point]

COc1ccc(-c2ccc(SCC(=O)c3ccccc3)nn2)cc1OC
AC50 [2]: 0.082 µM [rising, single point]

CCOC(=O)[C@H]1[C@H]2COc3cc(OC)ccc3[C@@H]2N2C(=O)c3cc(C)ccc3NC(=O)[C@@]12C
cell number change: -13.8% | AC50 [1]: 0.116 µM [falling, full curve, poor fit]

O=C(Cc1ccc(O)cc1)NCCNC(=S)NCc1ccccc1
cell number change: -16.5% | AC50 [1]: 16.4 µM [falling, single point]
